# US9315545B2, “Hepcidin mimetic peptides and uses thereof” (MERGANSER BIOTECH, INC., priority 2014, dated 2016)
# For some of these results: At least one peptide structure holds a part that was inferred or is arguable (an end, a ring closure or a residue). Some of these results come from one statement about several compounds together.
# Assays:
# serum iron = test: Serum iron reduction after subcutaneous administration in the rat (hepcidin mimetic activity); type: in vivo; settings: 7.5 mg/kg
# Method: Compounds 1-4 were tested in rats to determine compound pharmacokinetics and hepcidin mimetic activity in vivo as measured by serum iron reduction. The effectiveness of the compounds for serum iron reduction should correlate with the treatment of iron metabolism disorders. Individual compounds, in this example and the following examples were generally formulated in DSPE-PEG(2000) (SUNBRIGHT® DSPE-020CN, NOF America Corporation) (30 mg/mL) and dosed subcutaneously at a compound dose of 7.5 mg/kg.
# The compound was prepared according to the following typical preparation. The dosing solution was prepared (7.5 mg compound/mL in clear solution) by weighing the compound into vial and an aliquot of ethanol is added into the vial and mixture vortexed. DSPE-020CN was added and the solution was vortexed, and, if necessary, the mixture was heated at 37° C. for 10-15 minutes to fully dissolve the DSPE-020CN. The ethanol was evaporated with nitrogen gas stream for 1-3 hours. Sterile water was then added and the mixture was vortexed or, if necessary, sonicated to give a clear solution.
# Serum iron was measured during the 24 h following subcutaneous administration in a rat of Compounds 1-4 and is summarized in FIG. 1. […] The observed effects on serum iron were unexpectedly similar in Compounds 1-3 despite the differences at Cysteine 7 and the differences in blood levels of the compounds (Table 7).
# [1] = In vitro stability of compounds in rat plasma (37° C.); type: in vitro ADME; settings: Compound 5: data not shown
# Method: The in vitro stability of Compounds 1-4 in rat plasma at 37° C. was examined to give an indication of stability in a whole animal model (Table 6).
# [2] = type: physicochemical
# Method: An additional critical aspect in drug delivery is retention of solubility with time (physical stability), especially under refrigerated conditions. […] Unexpectedly, clear differences in physical stability were observed between Compound 5 and other compounds with only minor changes in sequence (e.g. Compounds 7 and 8). The combination of unexpected solubility of greater than 100 mg/mL in mildly acidic conditions and lack of significant changes in solution character after refrigeration, are unexpected and advantageous for a pharmaceutical product.
SMILES,reduction in serum iron (in words) (serum iron),"in vitro plasma stability, comparison in words [1]","Solution Appearance after 7 days Storage at 2-8° C., 50% EtOH/water [2]","Solution Appearance after 7 days Storage at 2-8° C., 50% propylene glycol, pH 2.7 [2]",also measured
"CCCCCCCCCCCCCCCCNC(=O)CN(CC(N)=O)C(=O)CCCCCNC(=O)C(Cc1c[nH]c2ccccc12)NC(=O)C(CCCNC(=N)N)NC(=O)C(CS)NC(=O)C(CCCNC(=N)N)NC(=O)CC1CCCN1C(=O)C(NC(=O)C(Cc1c[nH]cn1)NC(=O)C(NC(=O)CNCC(=O)O)C(C)O)C(c1ccccc1)c1ccccc1 (stereo not shown) [Compound 1, reference compound]",sustained reduction in serum iron,,,,
CCCCCCCCCCCCCCCCNC(=O)CN(CC(N)=O)C(=O)CCCCCNC(=O)C(Cc1c[nH]c2ccccc12)NC(=O)C(CCCNC(=N)N)NC(=O)C(CSC(C)=O)NC(=O)C(CCCNC(=N)N)NC(=O)CC1CCCN1C(=O)C(NC(=O)C(Cc1c[nH]cn1)NC(=O)C(NC(=O)CNCC(=O)O)C(C)O)C(c1ccccc1)c1ccccc1 (stereo not shown) [Compound 3],sustained reduction in serum iron,better than Compound 1,,,
CCCCCCCCCCCCCCCCNC(=O)CN(CC(N)=O)C(=O)CCCCCNC(=O)[C@H](Cc1c[nH]c2ccccc12)NC(=O)[C@H](CCCNC(=N)N)NC(=O)[C@H](CSSC)NC(=O)[C@H](CCCNC(=N)N)NC(=O)[C@@H]1CCCN(C(=O)[C@@H](NC(=O)[C@H](Cc2c[nH]cn2)NC(=O)[C@@H](NC(=O)CNCC(=O)O)[C@@H](C)O)C(c2ccccc2)c2ccccc2)C1 [Compound 7],,,Gel,Gel,"Solution Appearance after 7 days Storage at 2-8° C., 10% Tween 80 pH 2.3-2.8 [2]: Gel; Solution Appearance after 7 days Storage at 2-8° C., 30% PEG 400 [2]: Syrupy"
CCCCCCCCCCCCCCCCNC(=O)CN(CC(N)=O)C(=O)CCCCCNC(=O)C(Cc1c[nH]c2ccccc12)NC(=O)C(CCCNC(=N)N)NC(=O)C(CSCC)NC(=O)C(CCCNC(=N)N)NC(=O)CC1CCCN1C(=O)C(NC(=O)C(Cc1c[nH]cn1)NC(=O)C(NC(=O)CNCC(=O)O)C(C)O)C(c1ccccc1)c1ccccc1 (stereo not shown) [Compound 4],,better than Compound 1,,,
CCCCCCCCCCCCCCCCNC(=O)CN(CC(N)=O)C(=O)CCCCCNC(=O)C(Cc1c[nH]c2ccccc12)NC(=O)C(CCCNC(=N)N)NC(=O)C(CSSC)NC(=O)C(CCCNC(=N)N)NC(=O)CC1CCCN1C(=O)C(NC(=O)C(Cc1c[nH]cn1)NC(=O)C(NC(=O)CNCC(=O)O)C(C)O)C(c1ccccc1)c1ccccc1 (stereo not shown) [Compound 2],sustained reduction in serum iron,better than Compound 1,,,
CCCCCCCCCCCCCCCCNC(=O)CN(CC(N)=O)C(=O)CCCCCNC(=O)[C@H](Cc1c[nH]c2ccccc12)NC(=O)[C@H](CCCNC(=N)N)NC(=O)[C@H](CSSC)NC(=O)[C@H](CCCNC(=N)N)NC(=O)C1CCN(C(=O)[C@@H](NC(=O)[C@H](Cc2c[nH]cn2)NC(=O)[C@@H](NC(=O)CNCC(=O)O)[C@@H](C)O)C(c2ccccc2)c2ccccc2)CC1 [Compound 8],,,Gel,Gel,"Solution Appearance after 7 days Storage at 2-8° C., 10% Tween 80 pH 4.5-5.0 [2]: Gel; Solution Appearance after 7 days Storage at 2-8° C., 10% Tween 80 pH 5.5-6.0 ([2]; 10% Tween 80 pH 5.5-6.0): Gel; Solution Appearance after 7 days Storage at 2-8° C., 30% PEG 400 [2]: Gel"
CCCCCCCCCCCCCCCCNC(=O)CN(CC(N)=O)C(=O)CCCCCNC(=O)[C@H](Cc1c[nH]c2ccccc12)NC(=O)[C@H](CCCNC(=N)N)NC(=O)[C@H](CSSC)NC(=O)[C@H](CCCNC(=N)N)NC(=O)C[C@@H]1CCCN1C(=O)[C@@H](NC(=O)[C@H](Cc1c[nH]cn1)NC(=O)[C@@H](NC(=O)CN(CC(=O)O)C(=O)CNC(C)=O)[C@@H](C)O)C(c1ccccc1)c1ccccc1 [Compound 9],,,Gel,Gel,"Solution Appearance after 7 days Storage at 2-8° C., Water ([2]; Water): Gel"
CCCCCCCCCCCCCCCCNC(=O)CN(CC(N)=O)C(=O)CCCCCNC(=O)[C@H](Cc1c[nH]c2ccccc12)NC(=O)[C@H](CCCNC(=N)N)NC(=O)[C@H](CSSC)NC(=O)[C@H](CCCNC(=N)N)NC(=O)CCNC(=O)[C@@H](NC(=O)[C@H](Cc1c[nH]cn1)NC(=O)[C@@H](NC(=O)CNCC(=O)O)[C@@H](C)O)C(c1ccccc1)c1ccccc1 [Compound 10],,,Gel,Gel,"Solution Appearance after 7 days Storage at 2-8° C., 10% Tween 80 pH 2.3-2.8 [2]: Gel; Solution Appearance after 7 days Storage at 2-8° C., 10% Tween 80 pH 4.5-5.0 [2]: Gel"
